Reference: PubChem BioAssay AID1671195 (Yale University, 2021)
Shown is an unselected part of about 22,000 deposited reagents. About 1,510 of all reagents (6.9%) count as active. 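Active includes knockdowns raising or lowering LDL uptake; positive z-scores mean more uptake, negative mean less.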 Unmarked entries are inactive. The numbers tell different reagents against one gene apart.

- Aim: 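Genes whose knockdown alters LDL uptake in liver cancer cells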 (primary screen)
- System: human Huh7 hepatoma cells
- Reagents: siRNA pool against human genes, 18 nM
- Time to read-out: about 2 to 2.5 days of knockdown, then 8 h LDL uptake
- Conditions: DiI-labelled LDL at 30 µg/ml for 8 h, in lipoprotein-deficient serum medium
- Measured: 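Fluorescent LDL signal imaged in cells, scaled to the plate median, robust z-score for each replicate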
- Reading the numbers: robust z-score: higher = more LDL uptake after knockdown
- Hit rule: 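a gene counts as active if at least two replicate z-scores exceed ±2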

no.	gene symbol	pool no.	robust z-score, replicate 1	robust z-score, replicate 2	robust z-score, replicate 3
1	TMEM175 (transmembrane protein 175)	1	0.924	1.77	1.12
2	PTPN18 (protein tyrosine phosphatase non-receptor type 18)	1	-0.0369	-0.857	-0.0787
3	OFCC1 (orofacial cleft 1 candidate 1 (pseudogene))	1	-0.173	-0.401	-0.295
4	LINC00705 (long independently transcribed non-coding RNA 705)	1	1.01	0.6	0.673
5	RS1 (retinoschisin 1)	1	0.992	-0.167	-0.353
6	SPATA31J1 (SPATA31 subfamily J member 1)	1	0.435	0.271	0.203
7	SPATA31J1 (SPATA31 subfamily J member 1)	2	0.421	0.00584	0.0875
8	RAB36 (RAB36, member RAS oncogene family)	1	-0.943	-1.54	-1.25
9	SLC22A3	1	0.628	0.259	0.709
10	SPRY3 (sprouty RTK signaling antagonist 3)	1	-0.29	-1.09	-0.269
11	LIMA1 (LIM domain and actin binding 1)	1	0.0447	1.52	-0.185
12	POLR1E (RNA polymerase I subunit E)	1	1.61	1.9	2.92
13	H3-3A (H3.3 histone A)	1	1.18	-0.0982	0.934
14	LOC389443 (retired record)	1	2 (active)	1.9	1.28
15	NEK6 (NIMA related kinase 6)	1	-0.747	-1.17	-0.686
16	PRPF6 (pre-mRNA processing factor 6)	1	0.186	-0.167	1.41
17	LOC442129 (retired record)	1	-0.176	0.292	-0.161
18	FKBP6 (FKBP prolyl isomerase family member 6 (inactive))	1	-0.23	-0.467	-0.244
19	LOC441769 (retired record)	1	-0.189	-0.334	0.0835
20	PHF5A (PHD finger protein 5A)	1	-1.08	-0.584	-0.268
21	LOC440871 (retired record)	1	2.2	1.54	1.77
22	TCTA (T cell leukemia translocation altered)	1	1.67	1.11	1.46
23	PGAP6 (post-GPI attachment to proteins 6)	1	0.0735	0.971	1.23
24	LCORL (ligand dependent nuclear receptor corepressor like)	1	2.64 (active)	3.1	2.29
25	LOC389188 (retired record)	1	0.245	-0.0806	-0.973
26	LOC391767 (retired record)	1	3.77 (active)	2.61	3.23
27	HSPA4L (heat shock protein family A (Hsp70) member 4 like)	1	1.06	0.878	1.17
28	CYRIB (CYFIP related Rac1 interactor B)	1	0.527	0.864	1.77
29	AHR (aryl hydrocarbon receptor)	1	1.84	1.72	3.08
30	USP8 (ubiquitin specific peptidase 8)	1	0.318	0.375	0.531
31	VWC2 (von Willebrand factor C domain containing 2)	1	-0.223	-0.0954	-0.219
32	FKBP14 (FKBP prolyl isomerase 14)	1	0.101	0.506	0.758
33	ORC1 (origin recognition complex subunit 1)	1	0.251	-0.182	0.127
34	NOP53 (NOP53 ribosome biogenesis factor)	1	-1.79	-0.238	0.462
35	CDK14 (cyclin dependent kinase 14)	1	-0.0524	1.51	0.18
36	HOXB3 (homeobox B3)	1	-1.05	-1.2	-0.911
37	NTRK3 (neurotrophic receptor tyrosine kinase 3)	1	-1.55	-0.618	-2.29
38	FGF22 (fibroblast growth factor 22)	1	-1.89	-1.31	-1.76
39	POP7 (POP7 ribonuclease P/MRP subunit)	1	2.1 (active)	2.47	-1.63
40	CCDC126 (coiled-coil domain containing 126)	1	-1.03	-0.909	-1.19
41	RNFT1 (ring finger protein, transmembrane 1)	1	-0.55	-0.881	-0.903
42	KMT2E (lysine methyltransferase 2E (inactive))	1	0.314	-0.537	-0.292
43	CYP7A1 (cytochrome P450 family 7 subfamily A member 1)	1	-1.73	-0.902	-1.52

Continued; the last 12 above are carried over.
no.	gene symbol	pool no.	robust z-score, replicate 1	robust z-score, replicate 2	robust z-score, replicate 3
32	FKBP14 (FKBP prolyl isomerase 14)	1	0.101	0.506	0.758
33	ORC1 (origin recognition complex subunit 1)	1	0.251	-0.182	0.127
34	NOP53 (NOP53 ribosome biogenesis factor)	1	-1.79	-0.238	0.462
35	CDK14 (cyclin dependent kinase 14)	1	-0.0524	1.51	0.18
36	HOXB3 (homeobox B3)	1	-1.05	-1.2	-0.911
37	NTRK3 (neurotrophic receptor tyrosine kinase 3)	1	-1.55	-0.618	-2.29
38	FGF22 (fibroblast growth factor 22)	1	-1.89	-1.31	-1.76
39	POP7 (POP7 ribonuclease P/MRP subunit)	1	2.1 (active)	2.47	-1.63
40	CCDC126 (coiled-coil domain containing 126)	1	-1.03	-0.909	-1.19
41	RNFT1 (ring finger protein, transmembrane 1)	1	-0.55	-0.881	-0.903
42	KMT2E (lysine methyltransferase 2E (inactive))	1	0.314	-0.537	-0.292
43	CYP7A1 (cytochrome P450 family 7 subfamily A member 1)	1	-1.73	-0.902	-1.52
44	LOC442115 (retired record)	1	-0.869	-0.539	-0.131
45	DSCR4 (Down syndrome critical region 4)	1	-1.85	-1.37	0.783
46	OAZ1 (ornithine decarboxylase antizyme 1)	1	0.396	-0.266	0.653
47	PPM1E (protein phosphatase, Mg2+/Mn2+ dependent 1E)	1	1.47	1.48	1.23
48	LOC128208 (retired record)	1	0.68	-0.159	1.8
49	TMEM169 (transmembrane protein 169)	1	2.47 (active)	1.24	1.92
50	SPATA2 (spermatogenesis associated 2)	1	-1.21	-0.289	-1.52
51	ZNF75A (zinc finger protein 75A)	1	0.137	0.191	-0.0367
52	NLN (neurolysin)	1	1.05	0.784	0.52
53	CAPN9 (calpain 9)	1	-1.84	-1.17	-1.26
54	NDUFS7 (NADH:ubiquinone oxidoreductase core subunit S7)	1	-0.689	-0.581	-0.49
55	USP34 (ubiquitin specific peptidase 34)	1	4.71 (active)	3.39	3.67
56	CGRRF1 (cell growth regulator with ring finger domain 1)	1	-0.0899	-0.669	0.488
57	ATP6V1E1 (ATPase H+ transporting V1 subunit E1)	1	0.998	1.29	0.457
58	LRRC38 (leucine rich repeat containing 38)	1	0.822	0.247	-0.406
59	TNRC6B (trinucleotide repeat containing adaptor 6B)	1	-1.24	0.264	-0.433
60	RSAD2 (radical S-adenosyl methionine domain containing 2)	1	-0.371	-0.227	-0.293
61	EXOC3L2 (exocyst complex component 3 like 2)	1	-1.17	-1.5	-1.32
62	WFDC8 (WAP four-disulfide core domain 8)	1	-1.09	-1.42	-1.49
63	EIF3I (eukaryotic translation initiation factor 3 subunit I)	1	-1.42	-0.531	-0.853
64	DSC2 (desmocollin 2)	1	-0.00588	-0.162	0.311
65	SHROOM2 (shroom family member 2)	1	0.26	-0.193	-0.261
66	NUCB1 (nucleobindin 1)	1	-0.339	0.18	-1.25
67	STX7 (syntaxin 7)	1	-1.12	-1.16	-0.883
68	LOC390896 (retired record)	1	-0.816	-0.739	0.138
69	CTNND1 (catenin delta 1)	1	-1.44	0.282	0.072
70	ERVW-1 (endogenous retrovirus group W member 1, envelope)	1	5.75 (active)	4.63	-0.101
71	ZNF503 (zinc finger protein 503)	1	-1.1	-1.2	-1.26
72	FMO2 (flavin containing dimethylaniline monoxygenase 2)	1	-0.649	0.0808	-0.728
73	PRKACG (protein kinase cAMP-activated catalytic subunit gamma)	1	-0.116	0.726	1.04
74	TMPRSS5 (transmembrane serine protease 5)	1	0.295	-0.425	0.44
75	IMPG1 (interphotoreceptor matrix proteoglycan 1)	1	0.263	0.265	0.494
76	LZTR1 (leucine zipper like post translational regulator 1)	1	-0.386	0.173	-0.00123
77	LOC440988 (retired record)	1	0.819	0.542	0.151
78	CAMSAP3	1	-1.91 (active)	-2.06	-1.73
79	LOC387910 (retired record)	1	-0.802	-0.772	-0.891
80	TRPV2	1	-0.861	-1.04	-0.323
81	IRX1 (iroquois homeobox 1)	1	0.33	0.473	0.76
82	LORICRIN (loricrin cornified envelope precursor protein)	1	0.0154	-0.191	-0.731
83	TMEM105 (TMEM105 long non-coding RNA)	1	0.377	0.403	1.1
84	ZFYVE19 (zinc finger FYVE-type containing 19)	1	-0.572	-0.655	-0.0934
85	KIZ (kizuna centrosomal protein)	1	0.776	-0.063	0.24
86	HOXD9 (homeobox D9)	1	-0.139	0.258	0.746
87	SIGLEC8 (sialic acid binding Ig like lectin 8)	1	-1.05	-1.25	-0.921
